# PubChem BioAssay AID493246 – Drosophila RNAi Screening Center, 2011
# Screen: 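Genome-wide search for dsRNAs that reduce cell number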 (primary screen)
# Cell system: Drosophila Kc and S2R+ cells
# Reagents: long dsRNA against Drosophila genes
# Detection: 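Cell number per well after knock-down, printed as raw plate values; calls were based on per-plate z-scores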
# Direction: Kc cell number and S2R+ cell number: higher = more cells remaining
# Active means: 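Active when the per-plate z-score of cell number is 3 or more in the direction of fewer cells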
# The deposit covers about 21,000 reagents; below is a random part of those with a known target gene and a result. Over the whole deposit, 429 (2%) were called active. 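Values are raw and not normalised between plates; calls rest on per-plate z-scores that were not deposited.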 Not given: the amount of reagent, the time to read-out.
predicted target,dsRNA,"Kc cell number, rep 1","Kc cell number, rep 2","S2R+ cell number, rep 1","S2R+ cell number, rep 2",call
Rrp5 (GeneID 42899),DRSC15862,1.44e6,1.56e6,1.11e6,1.16e6,inactive
CG17196 (GeneID 43112),DRSC15189,1.76e6,1.70e6,1.03e6,1.14e6,inactive
mol (GeneID 34872),DRSC01431,1.40e6,1.46e6,7.99e5,9.63e5,inactive
mol (GeneID 34872),DRSC01912,1.48e6,1.49e6,1.22e6,1.32e6,inactive
mol (GeneID 34872),DRSC02479,1.54e6,1.61e6,1.22e6,1.30e6,inactive
CG10132 (GeneID 35239),DRSC02013,1.31e6,1.38e6,1.26e6,1.31e6,inactive
Invadolysin (GeneID 49580),DRSC15527,1.74e6,1.81e6,1.37e6,1.55e6,inactive
CG9961 (GeneID 33459),DRSC00738,1.56e6,1.59e6,1.10e6,1.29e6,inactive
CG14383 (GeneID 41593),DRSC14841,1.45e6,1.37e6,9.84e5,1.05e6,inactive
Hex-A (GeneID 45875),DRSC18259,1.61e6,1.61e6,9.51e5,1.10e6,inactive
CG30274 (GeneID 246521),DRSC04171,1.52e6,1.58e6,1.31e6,1.35e6,inactive
Usp7 (GeneID 32169),DRSC18909,1.34e6,1.61e6,1.15e6,1.22e6,inactive
Usp7 (GeneID 32169),DRSC19604,1.58e6,1.62e6,1.04e6,1.22e6,inactive
CG6652 (GeneID 39905),DRSC10686,1.43e6,1.51e6,1.17e6,1.25e6,inactive
CG13667 (GeneID 38956),DRSC10028,1.32e6,1.46e6,1.14e6,1.08e6,inactive
side-VIII (GeneID 37310),DRSC05880,6.45e5,,8.06e5,,inactive
side-VIII (GeneID 37310),DRSC05883,3.69e5,,6.02e5,,inactive
side-VIII (GeneID 37310),DRSC06157,1.64e6,1.67e6,1.16e6,1.24e6,inactive
CG7506 (GeneID 38857),DRSC10860,1.60e6,1.68e6,1.28e6,1.24e6,inactive
Afti (GeneID 41744),DRSC16440,1.50e6,1.56e6,1.34e6,1.22e6,inactive
Glut1 (GeneID 38109),DRSC07927,1.49e6,1.37e6,9.72e5,1.16e6,inactive
Glut1 (GeneID 38109),DRSC08662,1.39e6,1.38e6,1.17e6,1.13e6,inactive
CG13252 (GeneID 40289),DRSC11700,1.27e6,1.28e6,1.24e6,1.33e6,inactive
CG13793 (GeneID 34047),DRSC02297,1.65e6,1.67e6,1.14e6,1.33e6,inactive

An excerpt from above, reduced to “Kc cell number, rep 2”:
CG30274 (GeneID 246521) [DRSC04171]: 1.58e6
Usp7 (GeneID 32169) [DRSC18909]: 1.61e6
Usp7 (GeneID 32169) [DRSC19604]: 1.62e6
